# Tested on: BAF complex subunits and histone proteins
# Experiment: Mass spectrometry proteomics of purified HA-SS18 WT and HA-SS18-SSX1 complexes (Tables 5A-5E)
# Parameters: species or system human
# Settings: HEK-293T
# [1] = HA-SS18SSX1_CHR_peptides: protein identified in the HA-SS18-SSX1 purification from solubilized chromatin (CHR)
# [2] = HA-SS18SSX1 purification, NE (soluble nuclear extract) fraction, peptides per identified protein
# [3] = HA-SS18WT_CHR_peptides: HA-SS18 WT purification from nuclease-treated solubilized chromatin (CHR), label = protein identified
# [4] = HA-SS18WT_NE_peptides: HA-SS18 WT complexes purified from nuclear extract (NE), label = protein identified (Gene Symbol)
# [5] = HA-SS18SSX1_NE_peptides (Table 5B), HA-SS18-SSX1 BAF complex purification from soluble nuclear extract
Molecule,Total (total peptides) [1],Unique (unique peptides) [1],Total (total peptides) [2],Unique (unique peptides) [2],Total (peptides) [3],Unique (peptides) [3],Total (peptides) [4],Unique (peptides) [4],Total (peptides) [5],Unique (peptides) [5]
"PDS5B (protein, UniProt Q9NTI5 1-1447, looked up) Sister chromatid cohesion …: MAHSKTRTNDGKITYPPGVKEISDKISKEEMVRRLKMVVKTFMDMDQDSEEEKELYLNLALHLASDFFLKHPDKDVRLLVACCLADIFRIYAPEAPYTSPDKLKDIFMFITRQLKGLEDTKSPQFNRYFYLLENIAWVKSYNICFELEDSNEIFTQLYRTLFSVINNGHNQKVHMHMVDLMSSIICEGDTVSQELLDTVLVNLVPAHKNLNKQAYDLAKALLKRTAQAIEPYITNFFNQVLMLGKTSISDLSEHVFDLILELYNIDSHLLLSVLPQLEFKLKSNDNEERLQVVKLLAKMFGAKDSELASQNKPLWQCYLGRFNDIHVPIRLECVKFASHCLMNHPDLAKDLTEYLKVRSHDPEEAIRHDVIVSIVTAAKKDILLVNDHLLNFVRERTLDKRWRVRKEAMMGLAQIYKKYALQSAAGKDAAKQIAWIKDKLLHIYYQNSIDDRLLVERIFAQYMVPHNLETTERMKCLYYLYATLDLNAVKALNEMWKCQNLLRHQVKDLLDLIKQPKTDASVKAIFSKVMVITRNLPDPGKAQDFMKKFTQVLEDDEKIRKQLEVLVSPTCSCKQAEGCVREITKKLGNPKQPTNPFLEMIKFLLERIAPVHIDTESISALIKQVNKSIDGTADDEDEGVPTDQAIRAGLELLKVLSFTHPISFHSAETFESLLACLKMDDEKVAEAALQIFKNTGSKIEEDFPHIRSALLPVLHHKSKKGPPRQAKYAIHCIHAIFSSKETQFAQIFEPLHKSLDPSNLEHLITPLVTIGHIALLAPDQFAAPLKSLVATFIVKDLLMNDRLPGKKTTKLWVPDEEVSPETMVKIQAIKMMVRWLLGMKNNHSKSGTSTLRLLTTILHSDGDLTEQGKISKPDMSRLRLAAGSAIVKLAQEPCYHEIITLEQYQLCALAINDECYQVRQVFAQKLHKGLSRLRLPLEYMAICALCAKDPVKERRAHARQCLVKNINVRREYLKQHAAVSEKLLSLLPEYVVPYTIHLLAHDPDYVKVQDIEQLKDVKECLWFVLEILMAKNENNSHAFIRKMVENIKQTKDAQGPDDAKMNEKLYTVCDVAMNIIMSKSTTYSLESPKDPVLPARFFTQPDKNFSNTKNYLPPEMKSFFTPGKPKTTNVLGAVNKPLSSAGKQSQTKSSRMETVSNASSSSNPSSPGRIKGRLDSSEMDHSENEDYTMSSPLPGKKSDKRDDSDLVRSELEKPRGRKKTPVTEQEEKLGMDDLTKLVQEQKPKGSQRSRKRGHTASESDEQQWPEEKRLKEDILENEDEQNSPPKKGKRGRPPKPLGGGTPKEEPTMKTSKKGSKKKSGPPAPEEEEEEERQSGNTEQKSKSKQHRVSRRAQQRAESPESSAIESTQSTPQKGRGRPSKTPSPSQPKKNVRVGRSKQAATKENDSSEEVDVFQGSSPVDDIPQEETEEEEVSTVNVRRRSAKRERR",13,13,9,9,18,18,5,5,,
"GLYR1 (protein, UniProt Q49A26 1-553, looked up) Cytokine-like nuclear factor …: MAAVSLRLGDLVWGKLGRYPPWPGKIVNPPKDLKKPRGKKCFFVKFFGTEDHAWIKVEQLKPYHAHKEEMIKINKGKRFQQAVDAVEEFLRRAKGKDQTSSHNSSDDKNRRNSSEERSRPNSGDEKRKLSLSEGKVKKNMGEGKKRVSSGSSERGSKSPLKRAQEQSPRKRGRPPKDEKDLTIPESSTVKGMMAGPMAAFKWQPTASEPVKDADPHFHHFLLSQTEKPAVCYQAITKKLKICEEETGSTSIQAADSTAVNGSITPTDKKIGFLGLGLMGSGIVSNLLKMGHTVTVWNRTAEKCDLFIQEGARLGRTPAEVVSTCDITFACVSDPKAAKDLVLGPSGVLQGIRPGKCYVDMSTVDADTVTELAQVIVSRGGRFLEAPVSGNQQLSNDGMLVILAAGDRGLYEDCSSCFQAMGKTSFFLGEVGNAAKMMLIVNMVQGSFMATIAEGLTLAQVTGQSQQTLLDILNQGQLASIFLDQKCQNILQGNFKPDFYLKYIQKDLRLAIALGDAVNHPTPMAAAANEVYKRAKALDQSDNDMSAVYRAYIH",13,11,4,4,8,6,3,3,,
"ZC3H18 (protein, UniProt Q86VM9 1-953, looked up) Zinc finger CCCH …: MDVAESPERDPHSPEDEEQPQGLSDDDILRDSGSDQDLDGAGVRASDLEDEESAARGPSQEEEDNHSDEEDRASEPKSQDQDSEVNELSRGPTSSPCEEEGDEGEEDRTSDLRDEASSVTRELDEHELDYDEEVPEEPAPAVQEDEAEKAGAEDDEEKGEGTPREEGKAGVQSVGEKESLEAAKEKKKEDDDGEIDDGEIDDDDLEEGEVKDPSDRKVRPRPTCRFFMKGNCTWGMNCRFIHPGVNDKGNYSLITKADPFPPNGAPPLGPHPLMPANPWGGPVVDEILPPPPPEPPTESAWERGLRHAKEVLKKATIRKEQEPDFEEKRFTVTIGEDEREFDKENEVFRDWNSRIPRDVRDTVLEPYADPYYDYEIERFWRGGQYENFRVQYTETEPYHNYRERERERERENRQRERERERERDRERERRQRERERERERERDKERQRRKEEWERERAKRDEKDRQHRDRDREKEREKEKGKPKPRSPQPPSRQAEPPKKEAATTGPQVKRADEWKDPWRRSKSPKKKLGVSVSPSRARRRRKTSASSASASNSSRSSSRSSSYSGSGSSRSRSRSSSYSSYSSRSSRHSSFSGSRSRSRSFSSSPSPSPTPSPHRPSIRTKGEPAPPPGKAGEKSVKKPAPPPAPPQATKTTAPVPEPTKPGDPREARRKERPARTPPRRRTLSGSGSGSGSSYSGSSSRSRSLSVSSVSSVSSATSSSSSAHSVDSEDMYADLASPVSSASSRSPAPAQTRKEKGKSKKEDGVKEEKRKRDSSTQPPKSAKPPAGGKSSQQPSTPQQAPPGQPQQGTFVAHKEIKLTLLNKAADKGSRKRYEPSDKDRQSPPPAKRPNTSPDRGSRDRKSGGRLGSPKPERQRGQNSKAPAAPADRKRQLSPQSKSSSKVTSVPGKASDPGAASTKSGKASTLSRREELLKQLKAVEDAIARKRAKIPGKA",13,9,,,9,6,,,,
"DDX27 (protein, UniProt Q96GQ7 1-765, looked up) Probable ATP-dependent RNA …: MLADLGLIGTIGEDDEVPVEPESDSGDEEEEGPIVLGRRQKALGKNRSADFNPDFVFTEKEGTYDGSWALADVMSQLKKKRAATTLDEKIEKVRKKRKTEDKEAKSGKLEKEKEAKEGSEPKEQEDLQENDEEGSEDEASETDYSSADENILTKADTLKVKDRKKKKKKGQEAGGFFEDASQYDENLSFQDMNLSRPLLKAITAMGFKQPTPIQKACIPVGLLGKDICACAATGTGKTAAFALPVLERLIYKPRQAPVTRVLVLVPTRELGIQVHSVTRQLAQFCNITTCLAVGGLDVKSQEAALRAAPDILIATPGRLIDHLHNCPSFHLSSIEVLILDEADRMLDEYFEEQMKEIIRMCSHHRQTMLFSATMTDEVKDLASVSLKNPVRIFVNSNTDVAPFLRQEFIRIRPNREGDREAIVAALLTRTFTDHVMLFTQTKKQAHRMHILLGLMGLQVGELHGNLSQTQRLEALRRFKDEQIDILVATDVAARGLDIEGVKTVINFTMPNTIKHYVHRVGRTARAGRAGRSVSLVGEDERKMLKEIVKAAKAPVKARILPQDVILKFRDKIEKMEKDVYAVLQLEAEEKEMQQSEAQINTAKRLLEKGKEAVVQEPERSWFQTKEERKKEKIAKALQEFDLALRGKKKRKKFMKDAKKKGEMTAEERSQFEILKAQMFAERLAKRNRRAKRARAMPEEEPVRGPAKKQKQGKKSVFDEELTNTSKKALKQYRAGPSFEERKQLGLPHQRRGGNFKSKSRYKRRK",12,12,,,14,13,,,1,1
"HNRNPH1 (protein, UniProt P31943 1-449, looked up) Heterogeneous nuclear …: MMLGTEGGEGFVVKVRGLPWSCSADEVQRFFSDCKIQNGAQGIRFIYTREGRPSGEAFVELESEDEVKLALKKDRETMGHRYVEVFKSNNVEMDWVLKHTGPNSPDTANDGFVRLRGLPFGCSKEEIVQFFSGLEIVPNGITLPVDFQGRSTGEAFVQFASQEIAEKALKKHKERIGHRYIEIFKSSRAEVRTHYDPPRKLMAMQRPGPYDRPGAGRGYNSIGRGAGFERMRRGAYGGGYGGYDDYNGYNDGYGFGSDRFGRDLNYCFSGMSDHRYGDGGSTFQSTTGHCVHMRGLPYRATENDIYNFFSPLNPVRVHIEIGPDGRVTGEADVEFATHEDAVAAMSKDKANMQHRYVELFLNSTAGASGGAYEHRYVELFLNSTAGASGGAYGSQMMGGMGLSNQSSYGGPASQQLSGGYGGGYGGQSSMSGYDQVLQENSSDFQSNIA",12,6,5,4,6,4,3,3,,
"RAD21 (protein, UniProt O60216 1-631, looked up) Double-strand-break repair …: MFYAHFVLSKRGPLAKIWLAAHWDKKLTKAHVFECNLESSVESIISPKVKMALRTSGHLLLGVVRIYHRKAKYLLADCNEAFIKIKMAFRPGVVDLPEENREAAYNAITLPEEFHDFDQPLPDLDDIDVAQQFSLNQSRVEEITMREEVGNISILQENDFGDFGMDDREIMREGSAFEDDDMLVSTTTSNLLLESEQSTSNLNEKINHLEYEDQYKDDNFGEGNDGGILDDKLISNNDGGIFDDPPALSEAGVMLPEQPAHDDMDEDDNVSMGGPDSPDSVDPVEPMPTMTDQTTLVPNEEEAFALEPIDITVKETKAKRKRKLIVDSVKELDSKTIRAQLSDYSDIVTTLDLAPPTKKLMMWKETGGVEKLFSLPAQPLWNNRLLKLFTRCLTPLVPEDLRKRRKGGEADNLDEFLKEFENPEVPREDQQQQHQQRDVIDEPIIEEPSRLQESVMEASRTNIDESAMPPPPPQGVKRKAGQIDPEPVMPPQQVEQMEIPPVELPPEEPPNICQLIPELELLPEKEKEKEKEKEDDEEEEDEDASGGDQDQEERRWNKRTQQMLHGLQRALAKTGAESISLLELCRNTNRKQAAAKFYSFLVLKKQQAIELTQEEPYSDIIATPGPRFHII",11,11,,,10,9,,,,
